Measured values published in article PMC3022720.
Results are given in words; binding and its absence hold for the method and conditions named. Binding seen in cells or lysates may run through a third protein. Binding can be weak; no strength is given.

Target: T1, Centrosomal Protein 190 (Cp190), wild type (Drosophila melanogaster (endogenous in pupae)) (UniProt Q24478)
T1 sequence: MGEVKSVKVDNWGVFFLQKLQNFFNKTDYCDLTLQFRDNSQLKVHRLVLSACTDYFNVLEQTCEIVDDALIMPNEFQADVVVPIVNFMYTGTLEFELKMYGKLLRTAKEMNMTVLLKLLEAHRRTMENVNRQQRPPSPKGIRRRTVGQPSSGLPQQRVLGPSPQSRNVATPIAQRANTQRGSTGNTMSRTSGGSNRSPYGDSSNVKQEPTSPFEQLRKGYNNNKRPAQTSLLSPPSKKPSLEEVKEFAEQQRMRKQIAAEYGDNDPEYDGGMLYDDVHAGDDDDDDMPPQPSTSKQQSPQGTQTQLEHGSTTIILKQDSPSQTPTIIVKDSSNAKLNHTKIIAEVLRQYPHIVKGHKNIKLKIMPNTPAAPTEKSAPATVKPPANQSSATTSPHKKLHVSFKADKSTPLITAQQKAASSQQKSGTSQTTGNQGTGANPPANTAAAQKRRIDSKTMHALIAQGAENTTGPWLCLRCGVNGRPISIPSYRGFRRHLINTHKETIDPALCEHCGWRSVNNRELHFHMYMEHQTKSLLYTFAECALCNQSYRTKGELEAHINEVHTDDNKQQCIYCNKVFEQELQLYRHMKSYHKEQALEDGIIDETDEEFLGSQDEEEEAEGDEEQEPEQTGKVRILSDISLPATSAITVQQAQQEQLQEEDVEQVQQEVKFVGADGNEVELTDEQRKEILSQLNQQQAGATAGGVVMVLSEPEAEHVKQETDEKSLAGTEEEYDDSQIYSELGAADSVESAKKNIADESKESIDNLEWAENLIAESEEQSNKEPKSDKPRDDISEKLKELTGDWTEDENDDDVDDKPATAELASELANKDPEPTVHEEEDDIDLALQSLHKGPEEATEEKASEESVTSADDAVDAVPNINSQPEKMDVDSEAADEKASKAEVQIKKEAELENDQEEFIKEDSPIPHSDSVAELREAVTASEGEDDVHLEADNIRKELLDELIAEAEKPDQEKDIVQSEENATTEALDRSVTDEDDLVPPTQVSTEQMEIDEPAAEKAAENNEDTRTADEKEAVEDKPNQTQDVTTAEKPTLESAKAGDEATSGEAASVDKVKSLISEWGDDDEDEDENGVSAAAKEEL
Assay: co-IP; extracts of pupae; anti-Myc from y2 ct6; P[Ubi63e::myc-CP190dBTB]/+; CP190^3/TM6B pupae, anti-Cp190 from y2 ct6 pupae; immunoblots with anti-Cp190 and anti-Mod(mdg4)67.2; mock controls anti-Myc or pre-immune serum from y2 ct6 pupae

binding: binds
Substance: Modifier of mdg 4 67.2 [Mod(mdg 4)67.2]
